Test results as given in the supplement of paper PMC10032668.
The other results are listed elsewhere or left out. Only hits are listed; about a third recur on repeated control peptides.

Sequences of proteins named here, by UniProt entry; tags and fusion partners are left off.
SRPK1, Q96SB4, UniProt Q96SB4, whole entry: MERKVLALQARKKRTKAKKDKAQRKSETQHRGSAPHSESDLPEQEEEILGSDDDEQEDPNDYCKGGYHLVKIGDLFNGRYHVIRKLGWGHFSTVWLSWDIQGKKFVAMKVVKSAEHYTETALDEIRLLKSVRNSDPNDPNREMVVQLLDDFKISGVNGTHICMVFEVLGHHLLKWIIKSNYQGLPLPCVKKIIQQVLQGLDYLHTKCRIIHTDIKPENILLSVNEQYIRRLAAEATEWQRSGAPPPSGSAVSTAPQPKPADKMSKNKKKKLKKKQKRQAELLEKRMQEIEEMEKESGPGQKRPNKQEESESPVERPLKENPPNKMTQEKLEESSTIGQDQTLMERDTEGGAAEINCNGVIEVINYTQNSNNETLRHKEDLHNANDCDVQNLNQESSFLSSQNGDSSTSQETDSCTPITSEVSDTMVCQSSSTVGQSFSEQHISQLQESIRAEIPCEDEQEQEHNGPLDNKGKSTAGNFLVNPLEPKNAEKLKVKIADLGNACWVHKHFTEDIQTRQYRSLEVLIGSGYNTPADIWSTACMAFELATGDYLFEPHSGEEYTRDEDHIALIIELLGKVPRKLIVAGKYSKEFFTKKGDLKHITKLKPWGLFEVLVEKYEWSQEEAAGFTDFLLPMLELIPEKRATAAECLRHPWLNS
HIST1H1D, P16402, UniProt P16402, whole entry: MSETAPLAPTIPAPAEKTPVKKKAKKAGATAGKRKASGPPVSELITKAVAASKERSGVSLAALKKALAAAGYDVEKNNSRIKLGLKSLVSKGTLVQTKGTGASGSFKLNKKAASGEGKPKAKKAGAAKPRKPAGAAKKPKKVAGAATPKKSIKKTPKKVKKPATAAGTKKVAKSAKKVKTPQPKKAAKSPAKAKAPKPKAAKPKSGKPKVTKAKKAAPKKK
MORF4L2, Q15014, UniProt Q15014, whole entry: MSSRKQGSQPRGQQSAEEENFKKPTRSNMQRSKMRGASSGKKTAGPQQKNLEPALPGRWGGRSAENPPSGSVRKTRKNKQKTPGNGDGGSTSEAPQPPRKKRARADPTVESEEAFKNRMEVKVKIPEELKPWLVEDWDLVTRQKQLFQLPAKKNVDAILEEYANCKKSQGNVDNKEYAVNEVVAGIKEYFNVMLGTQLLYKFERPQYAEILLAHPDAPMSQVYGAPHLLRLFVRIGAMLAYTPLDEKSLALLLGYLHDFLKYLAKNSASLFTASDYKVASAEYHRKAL
TUBB6, Q9BUF5, UniProt Q9BUF5, whole entry: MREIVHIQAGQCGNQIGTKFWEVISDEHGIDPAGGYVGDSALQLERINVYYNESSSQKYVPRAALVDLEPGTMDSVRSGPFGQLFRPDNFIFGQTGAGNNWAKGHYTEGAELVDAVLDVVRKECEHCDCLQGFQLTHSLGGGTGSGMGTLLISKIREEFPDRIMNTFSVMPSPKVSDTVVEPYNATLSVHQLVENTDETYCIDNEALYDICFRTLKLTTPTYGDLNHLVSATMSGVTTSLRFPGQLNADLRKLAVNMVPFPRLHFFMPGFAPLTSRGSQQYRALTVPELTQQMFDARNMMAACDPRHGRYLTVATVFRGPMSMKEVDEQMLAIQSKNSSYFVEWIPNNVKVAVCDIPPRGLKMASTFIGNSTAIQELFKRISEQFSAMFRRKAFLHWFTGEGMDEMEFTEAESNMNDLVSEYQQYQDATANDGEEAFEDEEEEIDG

Assays:
Experiment in all cases: PRISMA enrichment of interactor (LFQ) in peptide spot vs all other peptide spots (log2 fold change); higher = stronger / more specific binding of the interactor to the peptide
ALYREF, Q86V81 = target: ALYREF, Q86V81
Protocol: (§1)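 PRISMA: 15-aa overlapping tiles (offset 8 aa) of 60 microproteins, plus SOS1/GLUT1 control peptides, were spot-synthesized on cellulose membranes in triplicate. Membranes were incubated with benzonase-treated HEK293T lysate, and bound proteins were identified by LC-MS/MS with LFQ. Enrichment is the log2 fold change of each protein in one spot versus all other spots. Only interactors passing the significance cutoff are listed.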

C19orf53, Q9UNZ5 = target: C19orf53, Q9UNZ5
Protocol: as §1

CALU, O43852 = target: CALU, O43852
Protocol: as §1

CAMK2D, Q13557 = target: CAMK2D, Q13557
Protocol: as §1

CAMK2G, Q13555 = target: CAMK2G, Q13555
Protocol: as §1

CHTOP, Q9Y3Y2 = target: CHTOP, Q9Y3Y2
Protocol: as §1

CSRP2, Q16527 = target: CSRP2, Q16527
Protocol: as §1

EMG1, Q92979 = target: EMG1, Q92979
Protocol: as §1

FAM98B, Q52LJ0 = target: FAM98B, Q52LJ0
Protocol: as §1

GABARAPL2, P60520 = target: GABARAPL2, P60520
Protocol: as §1

MRPL46, Q9H2W6 = target: MRPL46, Q9H2W6
Protocol: as §1

PCLAF, Q15004 = target: PCLAF, Q15004
Protocol: as §1

[1] = substrate: PPIF, P30405
Protocol: as §1

PRKCSH, P14314 = target: PRKCSH, P14314
Protocol: as §1

SRPK1, Q96SB4 = target: SRPK1, Q96SB4
Protocol: as §1

ZNF22, P17026 = target: ZNF22, P17026
Protocol: as §1

ANXA6, P08133 = target: ANXA6, P08133
Protocol: as §1

C11orf98, E9PRG8 = target: C11orf98, E9PRG8
Protocol: as §1

CIRBP, Q14011 = target: CIRBP, Q14011
Protocol: as §1

CLTA, P09496 = target: CLTA, P09496
Protocol: as §1

CLTB, P09497 = target: CLTB, P09497
Protocol: as §1

CLTC, Q00610 = target: CLTC, Q00610
Protocol: as §1

CLTCL1, P53675 = target: CLTCL1, P53675
Protocol: as §1

CRIPT, Q9P021 = target: CRIPT, Q9P021
Protocol: as §1

CSNK1A1, P48729 = target: CSNK1A1, P48729
Protocol: as §1

CXorf56, Q9H5V9 = target: CXorf56, Q9H5V9
Protocol: as §1

DECR1, Q16698 = target: DECR1, Q16698
Protocol: as §1

DUSP3, P51452 = target: DUSP3, P51452
Protocol: as §1

EDF1, O60869 = target: EDF1, O60869
Protocol: as §1

FBXO5, Q9UKT4 = target: FBXO5, Q9UKT4
Protocol: as §1

FOCAD, Q5VW36 = target: FOCAD, Q5VW36
Protocol: as §1

FUS, P35637 = target: FUS, P35637
Protocol: as §1

HIST1H1D, P16402 = target: HIST1H1D, P16402
Protocol: as §1

HMGA1, P17096 = target: HMGA1, P17096
Protocol: as §1

HMGN1, P05114 = target: HMGN1, P05114
Protocol: as §1

HMGN2, P05204 = target: HMGN2, P05204
Protocol: as §1

HSPA9, P38646 = target: HSPA9, P38646
Protocol: as §1

LYZ, P61626 = target: LYZ, P61626
Protocol: as §1

MAZ, P56270 = target: MAZ, P56270
Protocol: as §1

MORF4L2, Q15014 = target: MORF4L2, Q15014
Protocol: as §1

NDUFB10, O96000 = target: NDUFB10, O96000
Protocol: as §1

NDUFS5, O43920 = target: NDUFS5, O43920
Protocol: as §1

NOL12, Q9UGY1 = target: NOL12, Q9UGY1
Protocol: as §1

NOL7, Q9UMY1 = target: NOL7, Q9UMY1
Protocol: as §1

[2] = substrate: NOSIP, Q9Y314
Protocol: as §1

NSFL1C, Q9UNZ2 = target: NSFL1C, Q9UNZ2
Protocol: as §1

PSMC4, P43686 = target: PSMC4, P43686
Protocol: as §1

RBIS, Q8N0T1 = target: RBIS, Q8N0T1
Protocol: as §1

RBMX, P38159 = target: RBMX, P38159
Protocol: as §1

RIOK1, Q9BRS2 = target: RIOK1, Q9BRS2
Protocol: as §1

SERF1B, O75920 = target: SERF1B, O75920
Protocol: as §1

SERF2, P84101 = target: SERF2, P84101
Protocol: as §1

SSNA1, O43805 = target: SSNA1, O43805
Protocol: as §1

ZNF593, O00488 = target: ZNF593, O00488
Protocol: as §1

hCG_2014768 = target: hCG_2014768
Protocol: as §1

CAPZB, P47756 = target: CAPZB, P47756
Protocol: as §1

CCDC137, Q6PK04 = target: CCDC137, Q6PK04
Protocol: as §1

CENPB, P07199 = target: CENPB, P07199
Protocol: as §1

DDX27, Q96GQ7 = target: DDX27, Q96GQ7
Protocol: as §1

PIN1, Q13526 = target: PIN1, Q13526
Protocol: as §1

PYCR1, P32322 = target: PYCR1, P32322
Protocol: as §1

PYCR2, Q96C36 = target: PYCR2, Q96C36
Protocol: as §1

SDCBP, O00560 = target: SDCBP, O00560
Protocol: as §1

TBC1D10B, Q4KMP7 = target: TBC1D10B, Q4KMP7
Protocol: as §1

TUBB6, Q9BUF5 = target: TUBB6, Q9BUF5
Protocol: as §1

UTP11, Q9Y3A2 = target: UTP11, Q9Y3A2
Protocol: as §1

WDR55, Q9H6Y2 = target: WDR55, Q9H6Y2
Protocol: as §1

TLRRTALSWWESVDI [THAP7]
PRISMA enrichment of interactor (log2) (ALYREF, Q86V81): 5.7
PRISMA enrichment of interactor (log2) (C19orf53, Q9UNZ5): 6.92
PRISMA enrichment of interactor (log2) (CALU, O43852): 6.57
PRISMA enrichment of interactor (log2) (CAMK2D, Q13557): 4.32
PRISMA enrichment of interactor (log2) (CAMK2G, Q13555): 4.62
PRISMA enrichment of interactor (log2) (CHTOP, Q9Y3Y2): 5.2
PRISMA enrichment of interactor (log2) (CSRP2, Q16527): 5.01
PRISMA enrichment of interactor (log2) (EMG1, Q92979): 4.79
PRISMA enrichment of interactor (log2) (FAM98B, Q52LJ0): 6.28
PRISMA enrichment of interactor (log2) (GABARAPL2, P60520): 5.22
PRISMA enrichment of interactor (log2) (MRPL46, Q9H2W6): 4.92
PRISMA enrichment of interactor (log2) (PCLAF, Q15004): 4.14
PRISMA enrichment of interactor (log2) [1]: 4.94
PRISMA enrichment of interactor (log2) (PRKCSH, P14314): 4.53
PRISMA enrichment of interactor (log2) (SRPK1, Q96SB4): 6
PRISMA enrichment of interactor (log2) (ZNF22, P17026): 4.32

TCHCEQLLLLDDPGH [LINC01128]
PRISMA enrichment of interactor (log2) (ALYREF, Q86V81): 5.91
PRISMA enrichment of interactor (log2) (ANXA6, P08133): 6.29
PRISMA enrichment of interactor (log2) (C11orf98, E9PRG8): 5.45
PRISMA enrichment of interactor (log2) (C19orf53, Q9UNZ5): 7.82
PRISMA enrichment of interactor (log2) (CHTOP, Q9Y3Y2): 5.7
PRISMA enrichment of interactor (log2) (CIRBP, Q14011): 5.8
PRISMA enrichment of interactor (log2) (CLTA, P09496): 6.86
PRISMA enrichment of interactor (log2) (CLTB, P09497): 6.47
PRISMA enrichment of interactor (log2) (CLTC, Q00610): 5.16
PRISMA enrichment of interactor (log2) (CLTCL1, P53675): 4.02
PRISMA enrichment of interactor (log2) (CRIPT, Q9P021): 4.61
PRISMA enrichment of interactor (log2) (CSNK1A1, P48729): 5.32
PRISMA enrichment of interactor (log2) (CSRP2, Q16527): 4.52
PRISMA enrichment of interactor (log2) (CXorf56, Q9H5V9): 5.75
PRISMA enrichment of interactor (log2) (DECR1, Q16698): 5.99
PRISMA enrichment of interactor (log2) (DUSP3, P51452): 5.2
PRISMA enrichment of interactor (log2) (EDF1, O60869): 5.54
PRISMA enrichment of interactor (log2) (EMG1, Q92979): 5.91
PRISMA enrichment of interactor (log2) (FAM98B, Q52LJ0): 7.96
PRISMA enrichment of interactor (log2) (FBXO5, Q9UKT4): 4.65
PRISMA enrichment of interactor (log2) (FOCAD, Q5VW36): 4.07
PRISMA enrichment of interactor (log2) (FUS, P35637): 5.16
PRISMA enrichment of interactor (log2) (HIST1H1D, P16402): 5.03
PRISMA enrichment of interactor (log2) (HMGA1, P17096): 5.25
PRISMA enrichment of interactor (log2) (HMGN1, P05114): 6.88
PRISMA enrichment of interactor (log2) (HMGN2, P05204): 5.9
PRISMA enrichment of interactor (log2) (HSPA9, P38646): 4.22
PRISMA enrichment of interactor (log2) (LYZ, P61626): 3.8
PRISMA enrichment of interactor (log2) (MAZ, P56270): 4.91
PRISMA enrichment of interactor (log2) (MORF4L2, Q15014): 6.22
PRISMA enrichment of interactor (log2) (NDUFB10, O96000): 5.68
PRISMA enrichment of interactor (log2) (NDUFS5, O43920): 5.16
PRISMA enrichment of interactor (log2) (NOL12, Q9UGY1): 4.52
PRISMA enrichment of interactor (log2) (NOL7, Q9UMY1): 4.9
PRISMA enrichment of interactor (log2) [2]: 4.29
PRISMA enrichment of interactor (log2) (NSFL1C, Q9UNZ2): 7.89
PRISMA enrichment of interactor (log2) (PCLAF, Q15004): 5.1
PRISMA enrichment of interactor (log2) (PSMC4, P43686): 7.56
PRISMA enrichment of interactor (log2) (RBIS, Q8N0T1): 4.64
PRISMA enrichment of interactor (log2) (RBMX, P38159): 4.82
PRISMA enrichment of interactor (log2) (RIOK1, Q9BRS2): 5.17
PRISMA enrichment of interactor (log2) (SERF1B, O75920): 3.73
PRISMA enrichment of interactor (log2) (SERF2, P84101): 7.91
PRISMA enrichment of interactor (log2) (SSNA1, O43805): 4.23
PRISMA enrichment of interactor (log2) (ZNF593, O00488): 4.07
PRISMA enrichment of interactor (log2) (hCG_2014768): 5.83

TPEELFHLLGADSQ [GLUT1_MUT_1]
PRISMA enrichment of interactor (log2) (ALYREF, Q86V81): 5.97
PRISMA enrichment of interactor (log2) (C11orf98, E9PRG8): 4.86
PRISMA enrichment of interactor (log2) (C19orf53, Q9UNZ5): 7.98
PRISMA enrichment of interactor (log2) (CAPZB, P47756): 5.63
PRISMA enrichment of interactor (log2) (CCDC137, Q6PK04): 5.21
PRISMA enrichment of interactor (log2) (CENPB, P07199): 4.54
PRISMA enrichment of interactor (log2) (CHTOP, Q9Y3Y2): 5.09
PRISMA enrichment of interactor (log2) (CLTA, P09496): 6.28
PRISMA enrichment of interactor (log2) (CLTB, P09497): 4.99
PRISMA enrichment of interactor (log2) (DDX27, Q96GQ7): 5.83
PRISMA enrichment of interactor (log2) (DECR1, Q16698): 5.28
PRISMA enrichment of interactor (log2) (EMG1, Q92979): 5.03
PRISMA enrichment of interactor (log2) (GABARAPL2, P60520): 5.48
PRISMA enrichment of interactor (log2) (MORF4L2, Q15014): 5.22
PRISMA enrichment of interactor (log2) (PIN1, Q13526): 4.71
PRISMA enrichment of interactor (log2) (PYCR1, P32322): 5.34
PRISMA enrichment of interactor (log2) (PYCR2, Q96C36): 5.28
PRISMA enrichment of interactor (log2) (SDCBP, O00560): 4
PRISMA enrichment of interactor (log2) (TBC1D10B, Q4KMP7): 4.74
PRISMA enrichment of interactor (log2) (TUBB6, Q9BUF5): 6.21
PRISMA enrichment of interactor (log2) (UTP11, Q9Y3A2): 5.09
PRISMA enrichment of interactor (log2) (WDR55, Q9H6Y2): 3.96
